# Measured values published in paper PMC3203111.
# Sequences of proteins named here, by UniProt entry; tags and fusion partners are left off. A change or cut given only in a name is not applied to a line headed by its entry. Residues count along the entry.
# UniProt P0A0U8: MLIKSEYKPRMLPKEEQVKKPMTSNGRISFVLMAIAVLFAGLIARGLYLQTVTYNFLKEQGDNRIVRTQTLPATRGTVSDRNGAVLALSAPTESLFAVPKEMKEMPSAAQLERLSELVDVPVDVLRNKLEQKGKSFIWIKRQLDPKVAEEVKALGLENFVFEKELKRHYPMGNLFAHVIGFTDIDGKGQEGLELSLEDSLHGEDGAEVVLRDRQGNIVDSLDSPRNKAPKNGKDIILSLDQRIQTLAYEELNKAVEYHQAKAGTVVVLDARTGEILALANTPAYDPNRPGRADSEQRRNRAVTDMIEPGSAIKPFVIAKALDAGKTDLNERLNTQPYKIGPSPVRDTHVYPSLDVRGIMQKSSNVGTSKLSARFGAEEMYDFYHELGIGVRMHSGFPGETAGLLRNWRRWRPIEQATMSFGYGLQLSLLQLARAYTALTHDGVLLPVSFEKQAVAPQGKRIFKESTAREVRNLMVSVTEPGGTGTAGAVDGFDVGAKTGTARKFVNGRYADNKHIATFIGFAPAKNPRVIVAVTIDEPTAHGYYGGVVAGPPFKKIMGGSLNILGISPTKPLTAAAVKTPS
# UniProt O00206, residues 24-839: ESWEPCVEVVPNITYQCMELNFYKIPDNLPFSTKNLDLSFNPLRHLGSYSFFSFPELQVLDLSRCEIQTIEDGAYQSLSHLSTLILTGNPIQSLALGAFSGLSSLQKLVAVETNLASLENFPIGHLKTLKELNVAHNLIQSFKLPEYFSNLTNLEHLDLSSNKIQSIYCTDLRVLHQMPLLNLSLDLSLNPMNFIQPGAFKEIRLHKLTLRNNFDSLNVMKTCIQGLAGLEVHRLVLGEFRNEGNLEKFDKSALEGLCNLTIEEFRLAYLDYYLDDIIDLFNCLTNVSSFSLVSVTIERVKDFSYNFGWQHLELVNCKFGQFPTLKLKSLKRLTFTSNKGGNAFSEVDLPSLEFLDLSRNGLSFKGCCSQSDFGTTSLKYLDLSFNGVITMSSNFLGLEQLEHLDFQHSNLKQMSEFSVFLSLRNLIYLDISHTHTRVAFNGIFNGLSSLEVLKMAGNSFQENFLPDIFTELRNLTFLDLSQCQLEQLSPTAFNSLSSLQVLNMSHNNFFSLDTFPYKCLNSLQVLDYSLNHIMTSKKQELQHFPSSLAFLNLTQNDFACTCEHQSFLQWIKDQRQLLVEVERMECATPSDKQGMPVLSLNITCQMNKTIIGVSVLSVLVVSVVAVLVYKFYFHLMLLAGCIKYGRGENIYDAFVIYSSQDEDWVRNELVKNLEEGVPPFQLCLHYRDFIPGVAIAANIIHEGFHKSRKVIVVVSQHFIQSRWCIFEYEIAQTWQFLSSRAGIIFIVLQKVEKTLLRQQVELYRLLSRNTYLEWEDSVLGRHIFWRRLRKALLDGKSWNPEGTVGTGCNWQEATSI
# Results are given in words; binding and its absence hold for the method and conditions named. A result given as binding can be weak or reduced; the word gives no strength. For part of these data: In cells and extracts the contact can be indirect.
# Experiments:
# [1] = target: His6-tagged PBP2 (penicillin-binding protein 2) from Neisseria meningitidis (Neisseria meningitidis) (UniProt P0A0U8); assay: co-IP; Hec-1-B cells treated with 10 µg of purified His6-tagged protein, lysed (1% Triton X-100, 0.5% NP-40, 100 mM NaCl, pH 7.5); 500 µg soluble proteins precipitated with 5 µg anti-HisTag rabbit polyclonal antibody and protein A-agarose at 4°C; immunoblot with anti-TLR4 mAb; only the target purified
# [2] = target: human TLR4 (Toll-like receptor 4), naturally expressed by Hec-1-B epithelial cells (human) (UniProt O00206); assay: co-IP; Hec-1-B cells treated with 10 µg of purified His6-tagged protein, lysed (1% Triton X-100, 0.5% NP-40, 100 mM NaCl, pH 7.5); 500 µg soluble proteins precipitated with 5 µg anti-hTLR4 mAb (clone 1G11) and protein A-agarose at 4°C; immunoblot with anti-His tag polyclonal antibody; only the binder purified
# [3] = target: human TLR4 (Toll-like receptor 4), naturally expressed by Hec-1-B epithelial cells (human) (UniProt O00206); assay: ELISA; cellular ELISA: Hec-1-B cells in 24 well plates treated 1 h at 37°C with increasing amounts of purified His-tagged PBP2, with anti-TLR4 blocking antibody (clone HTA125) or irrelevant normal mouse IgG (10 µg); washed, fixed; bound PBP2 detected with anti-His-tag polyclonal antibody and HRPO conjugate, read at 492 nm; only the binder purified
Substance,binding [1],binding [2],binding [3]
"human TLR4 (Toll-like receptor 4), naturally expressed by Hec-1-B epithelial cells (from UniProt O00206 24-839)",binds,,
His6-tagged PBP2 (penicillin-binding protein 2) from Neisseria meningitidis (from UniProt P0A0U8),,binds,binds
